The whole screen tested about 2,400 compounds, of which about 20 (0.8%) were called active.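 Rule for the calls: active = AC50 no more than ten times the highest tested concentration, or full inhibition at every dose giving a flat fit (cut at about 30 µM in these data); inconclusive = flat fit with activity between 30% and 70%, or poor-quality invalid fit; inactive = AC50 more than ten times the top tested dose.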 The list shows a part of the results.
test: inhibitors of ADP-Glo detection reagents, dose response, artefact control for GSK-3a inhibitor project, biochemical, luminescence, cell-free, homogeneous (AID 463205); conditions: 5 uM ADP;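 note: kinase-free counter-screen against the ADP-Glo detection reagents only; potency is for inhibitors that reduce the luminescence signal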

AC50, inactive:
CCCCN(CCCC)c1cn[nH]c(=O)c1Cl > 30 µM
Cc1nc(Nc2ccc(F)cc2)nc(Nc2ccc(F)cc2)c1[N+](=O)[O-] > 30 µM
Nc1nccnc1C(=O)N/N=C/c1ccco1 > 30 µM
O=C(COC(=O)c1cc([N+](=O)[O-])ccc1N1CCOCC1)Nc1ccc(Cl)cn1 > 30 µM
CC(=O)Oc1cc2c3c(c1)/C(=C1/SC(=S)NC1=O)C(=O)N3C(C)(C)C=C2C > 30 µM
CCCCOC(=O)C1=C(C)Nc2ncnn2C1c1ccc(OC)c(OC)c1 (stereo not given) > 30 µM
COc1cccc(/C=N/NC(=O)C(=O)N2CCCC2)c1OC > 30 µM
O=C(O)c1ccc2c(c1)S(=O)(=O)c1ccccc1C2=O > 30 µM
CC1=CC(=C2C(=O)c3ccccc3C2=O)C=C(C)N1Cc1ccco1 > 30 µM
COc1cccc(/C=N/NC(=O)COc2cccc3cccnc23)c1O > 30 µM
CCOc1cc(/C=N/Nc2ncnc(Cl)c2N)ccc1O > 30 µM
CCN1C(=O)/C(=C\c2cccs2)C(C(=O)OC)=C1C > 30 µM
O=c1[nH]nc(SCc2nnc(-c3cccc(Cl)c3)o2)n1C1CCCCC1 > 30 µM
COC(=O)c1sccc1-c1ccc(C(N)=O)o1 > 30 µM
O=C1c2c(O)ccc(O)c2C(=O)c2c(NCCNCCO)ccc(NCCNCCO)c21 > 30 µM
CCOC(=O)c1nnn(-c2nonc2N)c1COc1cc(C)c(Cl)c(C)c1 > 30 µM
COc1ccc(-c2c(C(C)=O)c(C)nc3sc4c(=O)[nH]nnc4c23)cc1 > 30 µM
Cn1cnnc1Sc1ccc(CN2CCN(C3CCCC3)C(CCO)C2)o1 (stereo not given) > 30 µM
O=C(CCc1nnc(-c2ccc3c(c2)OCO3)o1)N1CCC(c2ccc(F)cc2)C1 (stereo not given) > 30 µM
O=C(Nc1ccccc1N1CCOCC1)c1ccc(S(=O)(=O)NCc2ccco2)cc1 > 30 µM
CCSc1nc2c(c(=O)[nH]1)C(c1ccc(C)cc1)C1=C(CCCC1=O)N2 (stereo not given) > 30 µM
COc1ccc(CCNC(=O)c2nnn(-c3ccccc3OC)c2N)cc1OC > 30 µM
Cc1nc(NCC2CCCO2)[nH]c(=O)c1CCC(C)C (stereo not given) > 30 µM
Nc1nc2n(n1)C(c1ccc(F)cc1)CC(c1ccc(F)cc1)N2 (stereo not given) > 30 µM
COc1ccc(C2CC(=O)N3CN(Cc4ccco4)CSC3=C2C#N)cc1 (stereo not given) > 30 µM

Fetched one by one from the list above, 2 records:
AC50, inactive:
CC(=O)Oc1cc2c3c(c1)/C(=C1/SC(=S)NC1=O)C(=O)N3C(C)(C)C=C2C > 30 µM
O=C(Nc1ccccc1N1CCOCC1)c1ccc(S(=O)(=O)NCc2ccco2)cc1 > 30 µM

Source: PubChem BioAssay AID463205 (Broad Institute, 2010)
